Experimental data: PubChem BioAssay AID743454 (Peter MacCallum Cancer Centre, 2014)

- Screen: 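Knock-downs lowering viability or raising caspase 3/7 activity in vorinostat-treated resistant cells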 (primary screen)
- System: human HCT116-VR colon cancer cells, selected for vorinostat resistance
- Reagents: siRNA pool against human genes, 40 nM siRNA pool
- Duration: vorinostat for 24 h, read-out about 72 h after transfection
- Challenge: vorinostat at 2.5 µM final
- Measured: 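Cell viability by CellTiter-Fluor and caspase 3/7 activity by luminescence, each scaled to mock wells per plate, duplicates averaged, then robust z-scored over all plates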
- Direction: viability robust z-score: higher = more viable cells than screen typical; caspase robust z-score: higher = more caspase 3/7 activity than screen typical
- Hit rule: 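Hits are knock-downs in viability class RV1/RV2 or caspase class CA1/CA2, excluding ones that killed cells in the no-drug cell-count arm; hits then retested with single siRNAs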
The whole screen tested about 18,000 reagents; this is a random part of them. 450 of them (2.5%) were called active. 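Single biological run; no consistent viability z cut-off exists, so the class columns, not z-scores, define the calls.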 No sequences are given here.

Knock-down of POTEE came out at: viability hit class no change; caspase hit class no change; viability robust z-score -1; caspase robust z-score 2.36; inactive.
GPRC5B showed viability hit class no change; caspase hit class no change; viability robust z-score -0.16; caspase robust z-score -0.79; inactive.
With knock-down of TUBB8 the results were viability hit class no change; caspase hit class no change; viability robust z-score 0.67; caspase robust z-score 0.48; inactive.
Depletion of H6PD resulted in: viability hit class no change; caspase hit class no change; viability robust z-score 0.2; caspase robust z-score 3.13; inactive.
Against ARID1A, the values are viability hit class no change; caspase hit class no change; viability robust z-score -1.1; caspase robust z-score 0.56; inactive.
After knock-down of SCAPER the results were viability hit class no change; caspase hit class no change; viability robust z-score 1.33; caspase robust z-score -0.77; inactive.
Knock-down of FCRL1 gave: viability hit class no change; caspase hit class no change; viability robust z-score 0.52; caspase robust z-score -1.01; inactive.
With knock-down of SLC26A9, the screen gave viability hit class no change; caspase hit class no change; viability robust z-score 0.38; caspase robust z-score -1.05; inactive.
After knock-down of CETN1 the results were viability hit class no change; caspase hit class no change; viability robust z-score -0.38; caspase robust z-score 3.64; inactive.
CABLES2 showed viability hit class no change; caspase hit class no change; viability robust z-score -0.59; caspase robust z-score 1.42; inactive.
For ATRAID the deposit lists viability hit class no change; caspase hit class no change; viability robust z-score -0.76; caspase robust z-score 0.1; inactive.
Silencing of DNAJC18 resulted in: viability hit class no change; caspase hit class no change; viability robust z-score 1.1; caspase robust z-score -1.04; inactive.
ZNF329 showed viability hit class no change; caspase hit class no change; viability robust z-score 0.94; caspase robust z-score 1.21; inactive.
For AQP3, the values are viability hit class no change; caspase hit class no change; viability robust z-score 1.15; caspase robust z-score -0.26; inactive.
After knock-down of C2orf15 the results were viability hit class RV2 (reduced viability); caspase hit class no change; viability robust z-score -3.62; caspase robust z-score 3.95; active.
LIAT1 showed viability hit class no change; caspase hit class no change; viability robust z-score 0.34; caspase robust z-score 0.7; inactive.
For PSME3 the deposit lists viability hit class no change; caspase hit class no change; viability robust z-score -1.23; caspase robust z-score 0.41; inactive.
For KCNMA1, the entry reads viability hit class no change; caspase hit class no change; viability robust z-score -0.55; caspase robust z-score -0.93; inactive.
Silencing of COL18A1-AS1 came out at: viability hit class no change; caspase hit class no change; viability robust z-score -2.37; caspase robust z-score -0.52; inactive.
For TRPV2, the entry reads viability hit class no change; caspase hit class no change; viability robust z-score -1.07; caspase robust z-score 2.35; inactive.
After knock-down of PRKAA2 the results were viability hit class no change; caspase hit class CA1 (caspase activation); viability robust z-score -2.11; caspase robust z-score 5.29; active.
